Cell number after 72 h of treatment

Source: doi:10.1371/journal.pone.0140310, primary screening data, rounded.

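Human melanoma cells were exposed to two drugs together for 72 h in 1,536-well plates and read by automated microscopy after fixing and staining. Each value is the count of nuclei relative to DMSO-treated wells, in %, so that 100 equals the control. Every drug was used at one fixed concentration, the lower of two screened (a fifth of the higher). No replicate spread is given; individual values may be noisy.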
An unselected part of the screen is shown.
An entry leaves out what has no value listed here.
A dash means that no value is listed here.

Drug key:
ENMD-2076, 40 nM: Cc1cc(Nc2cc(N3CCN(C)CC3)nc(/C=C/c3ccccc3)n2)n[nH]1
fingolimod, 2000 nM: CCCCCCCCc1ccc(CCC(N)(CO)CO)cc1
FK866, 10 nM: O=C(/C=C/c1cccnc1)NCCCCC1CCN(C(=O)c2ccccc2)CC1
BI-78D3, 200 nM: O=c1[nH]nc(Sc2ncc([N+](=O)[O-])s2)n1-c1ccc2c(c1)OCCO2
bexarotene, 2000 nM: C=C(c1ccc(C(=O)O)cc1)c1cc2c(cc1C)C(C)(C)CCC2(C)C
enzastaurin, 800 nM: Cn1cc(C2=C(c3cn(C4CCN(Cc5ccccn5)CC4)c4ccccc34)C(=O)NC2=O)c2ccccc21
IMD-0354, 16 nM: O=C(Nc1cc(C(F)(F)F)cc(C(F)(F)F)c1)c1cc(Cl)ccc1O
ruxolitinib, 1000 nM: N#CC[C@H](C1CCCC1)n1cc(-c2ncnc3[nH]ccc23)cn1
CX-4945, 400 nM: O=C(O)c1ccc2c(c1)nc(Nc1cccc(Cl)c1)c1ccncc12
dovitinib, 100 nM: CN1CCN(c2ccc3nc(-c4c(N)c5c(F)cccc5[nH]c4=O)[nH]c3c2)CC1
RKI-983, 400 nM: C[C@@H](N)c1ccc(C(=O)Nc2ccnc3[nH]ccc23)cc1
ABT-263, 400 nM: CC1(C)CCC(c2ccc(Cl)cc2)=C(CN2CCN(c3ccc(C(=O)NS(=O)(=O)c4ccc(N[C@H](CCN5CCOCC5)CSc5ccccc5)c(S(=O)(=O)C(F)(F)F)c4)cc3)CC2)C1
cisplatin, 1600 nM: N.N.[Cl][Pt][Cl]

Combination,COLO 829,COLO 792,COLO 800,G-361,A2058,IPC-298,LOX IMVI,A375,LB2518-MEL,MEL-HO,IST-MEL1,C32
enzastaurin + RKI-983,112,98.4,134,120,-,105,85.1,-,134,85.9,92.6,-
ruxolitinib + enzastaurin,116,108,166,101,-,101,33.8,-,99.2,95.4,112,-
bexarotene + ABT-263,91.8,64.0,96.4,59.7,-,99.1,38.9,-,87.9,66.9,68.3,-
IMD-0354 + BI-78D3,116,99.7,93.1,113,-,94.3,49.6,-,116,96.1,99.7,-
FK866 + RKI-983,73.1,36.9,25.0,5.8,-,28.3,48.3,-,95.5,30.2,58.3,-
ABT-263 + ENMD-2076,118,33.8,68.3,76.3,-,92.7,24.2,-,80.7,63.0,66.2,-
IMD-0354 + dovitinib,81.3,89.2,87.1,100,-,97.4,101,-,101,111,100,-
ABT-263 + fingolimod,123,57.4,49.1,76.1,-,102,45.6,-,102,75.5,78.4,-
FK866 + dovitinib,62.8,41.1,24.5,11.4,-,37.8,76.8,-,79.8,40.6,62.2,110
RKI-983 + ABT-263,92.6,27.9,30.2,73.4,-,98.4,61.1,-,92.5,61.4,72.1,-
FK866 + fingolimod,75.7,44.3,14.8,7.9,-,36.1,71.6,-,80.2,35.7,68.6,-
ruxolitinib + CX-4945,119,95.8,122,84.4,98.8,93.8,100,106,135,83.9,100,101
ruxolitinib + cisplatin,88.1,119,152,98.9,-,98.0,95.8,-,107,108,89.1,-
cisplatin + RKI-983,74.4,89.2,114,90.0,-,104,68.2,-,100,72.0,95.4,-
bexarotene + CX-4945,95.3,101,107,76.0,-,95.6,105,-,106,79.6,96.3,-
bexarotene + FK866,57.5,40.3,20.3,9.3,-,39.2,66.7,-,87.8,49.3,67.7,-
BI-78D3 + cisplatin,99.4,102,73.3,92.8,-,108,96.5,-,122,100,107,-
ENMD-2076 + FK866,79.7,43.5,23.3,9.3,-,37.8,45.6,-,86.8,47.5,61.1,-
ENMD-2076 + cisplatin,98.4,88.0,93.3,106,-,89.2,82.5,-,102,90.7,94.8,-
BI-78D3 + enzastaurin,100,122,131,125,-,104,150,-,110,109,99.9,-
CX-4945 + ABT-263,76.9,51.6,47.9,82.5,-,90.7,35.6,-,100,65.3,81.0,-

For reference, 3 entries once more:

{"combination": "BI-78D3 + enzastaurin", "COLO 829": 100, "COLO 792": 122, "COLO 800": 131, "G-361": 125, "IPC-298": 104, "LOX IMVI": 150, "LB2518-MEL": 110, "MEL-HO": 109, "IST-MEL1": 99.9}
{"combination": "bexarotene + FK866", "COLO 829": 57.5, "COLO 792": 40.3, "COLO 800": 20.3, "G-361": 9.3, "IPC-298": 39.2, "LOX IMVI": 66.7, "LB2518-MEL": 87.8, "MEL-HO": 49.3, "IST-MEL1": 67.7}
{"combination": "CX-4945 + ABT-263", "COLO 829": 76.9, "COLO 792": 51.6, "COLO 800": 47.9, "G-361": 82.5, "IPC-298": 90.7, "LOX IMVI": 35.6, "LB2518-MEL": 100, "MEL-HO": 65.3, "IST-MEL1": 81.0}